# PubChem BioAssay AID493246 – Drosophila RNAi Screening Center | 2011
# Purpose: 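Genome-wide search for dsRNAs that reduce cell number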 (primary screen)
# Cells: Drosophila Kc and S2R+ cells
# Reagent: long dsRNA against Drosophila genes
# Measurement: 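Raw, unnormalised count of remaining cells in each well; per-plate z-scores of cell number underlie the calls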
# Scale: Kc cell number and S2R+ cell number: higher = more cells remaining
# Call rule: 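Active when the per-plate z-score of cell number is 3 or more in the direction of fewer cells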
# The deposit covers about 21,000 reagents; below is an unselected part of those with a known target gene and a result. Of all reagents, 429 (2%) were called active. 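Values are raw and not normalised between plates; calls rest on per-plate z-scores that were not deposited.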 Entries without a mark were called inactive. Names joined by + are all predicted targets of the reagent. No sequences are given here. The record does not give: the amount of reagent, the time to read-out.
The opening 3 entries, to show the layout:
target gene,DRSC id,"Kc cell number, rep 1","Kc cell number, rep 2","S2R+ cell number, rep 1","S2R+ cell number, rep 2"
Actbeta (Activin-beta),DRSC17185,1.12e6,1.24e6,1.05e6,1.06e6
Actbeta (Activin-beta),DRSC17217,1.53e6,1.53e6,1.12e6,1.22e6
Rac2,DRSC11262,1.31e6,1.18e6,1.17e6,1.23e6

Results, from the start:
target gene,DRSC id,"Kc cell number, rep 1","Kc cell number, rep 2","S2R+ cell number, rep 1","S2R+ cell number, rep 2"
Actbeta (Activin-beta),DRSC17185,1.12e6,1.24e6,1.05e6,1.06e6
Actbeta (Activin-beta),DRSC17217,1.53e6,1.53e6,1.12e6,1.22e6
Rac2,DRSC11262,1.31e6,1.18e6,1.17e6,1.23e6
Oatp26F (Organic anion transporting polypeptide 26F),DRSC02149,1.46e6,1.38e6,1.15e6,1.30e6
Oatp26F (Organic anion transporting polypeptide 26F),DRSC02272,1.53e6,1.50e6,1.19e6,1.31e6
Oatp26F (Organic anion transporting polypeptide 26F),DRSC02695,1.50e6,1.41e6,1.15e6,1.30e6
Dcr-2 (Dicer-2),DRSC06992,1.62e6,1.91e6,1.35e6,1.50e6
CG1910,DRSC15400,5.22e5,,7.07e5,
trr (trithorax-related),DRSC18845,4.73e5,,6.33e5,
CG5003,DRSC15694,5.40e5,,7.88e5,
CG9396,DRSC16487,1.39e6,1.38e6,1.24e6,1.31e6
CG31391,DRSC16047,1.41e6,1.50e6,1.18e6,1.27e6
eIF3i (eukaryotic translation initiation factor 3 subunit i),DRSC03464,1.00e6,1.25e6,3.42e5,5.41e5
CG7031,DRSC16178,9.16e5 (active),1.01e6,4.49e5,5.32e5
CG18746,DRSC15383,1.65e6,1.93e6,1.27e6,1.39e6
Act5C (Actin 5C),DRSC17723,1.24e6,1.32e6,9.28e5,9.83e5
Ctl1 (Choline transporter-like 1),DRSC08303,1.49e6,1.45e6,1.15e6,1.28e6
CG15831 (retired record),DRSC20816,1.56e6,1.61e6,1.12e6,1.22e6
CG6885,DRSC10740,1.71e6,1.75e6,1.19e6,1.31e6
GNBP2 (Gram-negative bacteria binding protein 2),DRSC10404,1.46e6,1.50e6,1.36e6,1.39e6
Inx3 (Innexin 3),DRSC14857,6.24e5,,8.24e5,
CG2818,DRSC00540,1.40e6,1.41e6,1.18e6,1.27e6
CG33964 + CG13175,DRSC06300,1.58e6,1.66e6,1.29e6,1.32e6
CG33964 + CG13175,DRSC06301,1.51e6,1.57e6,1.23e6,1.29e6
CG33964 + CG13175,DRSC07184,1.46e6,1.58e6,1.29e6,1.36e6
